Source: paper PMC7862700
The entries are a selection whose mix differs from that of the whole data set. At the low end of the ranking, values are background and their order means little.

Chains of the proteins cited; added tags and fusions are not shown. Lines headed by an entry give the natural chain unless they say otherwise; changes in a name come on top.
UniProt Q01892: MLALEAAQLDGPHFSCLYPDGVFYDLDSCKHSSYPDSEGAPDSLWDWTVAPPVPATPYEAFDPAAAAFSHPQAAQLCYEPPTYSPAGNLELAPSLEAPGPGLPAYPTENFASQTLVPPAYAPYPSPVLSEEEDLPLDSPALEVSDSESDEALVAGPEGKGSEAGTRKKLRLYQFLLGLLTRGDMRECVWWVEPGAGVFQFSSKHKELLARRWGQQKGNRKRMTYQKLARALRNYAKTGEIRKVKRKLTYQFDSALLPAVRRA
UniProt P41161: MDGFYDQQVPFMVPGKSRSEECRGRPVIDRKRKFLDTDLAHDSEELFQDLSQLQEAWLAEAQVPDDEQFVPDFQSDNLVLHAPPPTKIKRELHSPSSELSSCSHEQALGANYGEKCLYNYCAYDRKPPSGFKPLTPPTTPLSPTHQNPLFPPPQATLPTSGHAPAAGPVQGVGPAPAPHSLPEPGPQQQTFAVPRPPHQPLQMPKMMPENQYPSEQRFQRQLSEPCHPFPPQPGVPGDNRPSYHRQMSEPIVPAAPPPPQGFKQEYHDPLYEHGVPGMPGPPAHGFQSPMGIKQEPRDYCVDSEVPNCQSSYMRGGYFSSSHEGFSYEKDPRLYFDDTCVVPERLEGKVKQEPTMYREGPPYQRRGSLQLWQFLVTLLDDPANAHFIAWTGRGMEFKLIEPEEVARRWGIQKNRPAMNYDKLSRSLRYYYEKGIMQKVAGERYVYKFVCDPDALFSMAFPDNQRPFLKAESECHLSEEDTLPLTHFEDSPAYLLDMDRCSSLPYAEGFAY
UniProt Q99607: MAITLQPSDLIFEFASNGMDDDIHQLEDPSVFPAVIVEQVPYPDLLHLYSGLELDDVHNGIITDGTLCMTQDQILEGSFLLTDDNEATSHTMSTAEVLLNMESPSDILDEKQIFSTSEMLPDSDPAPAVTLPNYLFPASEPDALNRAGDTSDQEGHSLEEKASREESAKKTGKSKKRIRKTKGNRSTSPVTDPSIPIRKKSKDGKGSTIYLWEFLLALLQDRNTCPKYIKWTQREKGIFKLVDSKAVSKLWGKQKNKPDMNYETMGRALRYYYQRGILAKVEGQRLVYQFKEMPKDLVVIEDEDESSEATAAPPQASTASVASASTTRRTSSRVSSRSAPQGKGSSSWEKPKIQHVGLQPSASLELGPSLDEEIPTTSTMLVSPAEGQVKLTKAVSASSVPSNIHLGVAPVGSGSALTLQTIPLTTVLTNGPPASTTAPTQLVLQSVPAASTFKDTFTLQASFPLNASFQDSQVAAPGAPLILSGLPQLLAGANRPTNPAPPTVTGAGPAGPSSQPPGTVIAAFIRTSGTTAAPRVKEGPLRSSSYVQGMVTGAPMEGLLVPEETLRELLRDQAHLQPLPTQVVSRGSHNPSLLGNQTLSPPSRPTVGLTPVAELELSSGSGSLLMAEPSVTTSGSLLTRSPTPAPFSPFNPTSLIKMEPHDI

Experiments:
Experiment in all cases: DAPPL (digital affinity profiling via proximity ligation, sequencing)
Details in all cases: 10 mM Tris-HCl pH 7.5, 50 mM NaCl, 1 mM DTT, 4% glycerol, room temperature, 30 min; GST-TFs on glutathione beads, 16-mer random dsDNA library, 0.1% …; high values mean tight binding; double strand, one strand shown; scale: fold enrichment (6-mer frequency, TF over GST control)
[1] = target: T1, FLI1 (UniProt Q01543)
T1 sequence: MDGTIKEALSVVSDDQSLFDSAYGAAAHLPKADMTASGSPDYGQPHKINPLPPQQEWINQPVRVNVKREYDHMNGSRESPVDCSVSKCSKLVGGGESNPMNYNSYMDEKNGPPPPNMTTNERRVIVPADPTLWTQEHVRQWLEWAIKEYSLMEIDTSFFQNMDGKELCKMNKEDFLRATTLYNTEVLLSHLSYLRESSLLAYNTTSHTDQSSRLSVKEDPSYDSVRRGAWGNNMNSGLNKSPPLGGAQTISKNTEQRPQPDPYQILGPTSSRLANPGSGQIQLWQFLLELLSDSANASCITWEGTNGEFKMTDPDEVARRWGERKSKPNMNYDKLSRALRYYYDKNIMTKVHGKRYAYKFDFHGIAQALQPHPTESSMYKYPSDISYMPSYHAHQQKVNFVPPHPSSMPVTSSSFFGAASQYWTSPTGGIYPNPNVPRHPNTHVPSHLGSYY

[2] = target: T2, EHF (UniProt Q9NZC4)
T2 sequence: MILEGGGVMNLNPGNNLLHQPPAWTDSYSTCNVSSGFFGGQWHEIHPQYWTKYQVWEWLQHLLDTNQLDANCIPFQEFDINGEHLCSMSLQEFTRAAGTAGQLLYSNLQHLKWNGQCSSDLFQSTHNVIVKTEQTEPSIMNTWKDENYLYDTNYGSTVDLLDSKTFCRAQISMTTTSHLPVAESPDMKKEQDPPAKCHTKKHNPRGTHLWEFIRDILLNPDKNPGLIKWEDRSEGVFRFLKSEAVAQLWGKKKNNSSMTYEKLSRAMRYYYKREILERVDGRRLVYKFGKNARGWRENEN

[3] = target: SPIB (UniProt Q01892)
[4] = target: ETV5 (UniProt P41161)
[5] = target: ELF4 (UniProt Q99607)
[6] = target: T3, ETV2 (UniProt O00321)
T3 sequence: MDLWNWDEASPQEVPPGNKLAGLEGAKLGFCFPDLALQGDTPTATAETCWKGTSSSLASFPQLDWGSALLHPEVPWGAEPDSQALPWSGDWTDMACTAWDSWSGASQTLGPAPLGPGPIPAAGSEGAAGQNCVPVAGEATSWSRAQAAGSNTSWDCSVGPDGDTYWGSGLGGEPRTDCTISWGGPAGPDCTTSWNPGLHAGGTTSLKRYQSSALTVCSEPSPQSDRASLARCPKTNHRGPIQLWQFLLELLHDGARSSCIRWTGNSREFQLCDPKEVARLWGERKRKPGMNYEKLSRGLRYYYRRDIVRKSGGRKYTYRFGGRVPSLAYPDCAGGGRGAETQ

[7] = target: T4, ETV3L (UniProt Q6ZN32)
T4 sequence: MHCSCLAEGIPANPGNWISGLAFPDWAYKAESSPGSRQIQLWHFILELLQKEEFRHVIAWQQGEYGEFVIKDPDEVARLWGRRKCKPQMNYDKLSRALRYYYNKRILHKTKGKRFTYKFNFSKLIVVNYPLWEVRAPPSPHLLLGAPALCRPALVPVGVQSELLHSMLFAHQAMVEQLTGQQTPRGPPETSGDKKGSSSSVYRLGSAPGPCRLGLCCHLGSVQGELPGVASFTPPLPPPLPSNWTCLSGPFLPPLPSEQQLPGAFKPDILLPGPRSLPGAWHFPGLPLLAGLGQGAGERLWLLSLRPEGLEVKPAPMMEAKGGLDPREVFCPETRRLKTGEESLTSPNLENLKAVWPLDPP

Sequence | binding signal [1] | binding signal [2] | binding signal [3] | binding signal [4] | binding signal [5] | binding signal [6] | binding signal [7]
TAGTGA | 0.551 | 0.569 | 0.57 | 0.544 | 0.585 | 0.475 | 0.598
CCGAGG | 0.702 | 0.698 | 0.662 | 0.71 | 0.738 | 0.728 | 0.736
AGAGGG | 0.689 | 0.726 | 0.739 | 0.726 | 0.736 | 0.807 | 0.669
CGTGGT | 0.532 | 0.582 | 0.638 | 0.561 | 0.571 | 0.514 | 0.553
GCGCAG | 0.859 | 0.848 | 0.862 | 0.826 | 0.836 | 0.77 | 0.806
GGGCGG | 0.376 | 0.486 | 0.452 | 0.48 | 0.438 | 0.415 | 0.426
CAGGTA | 0.821 | 0.731 | 0.801 | 0.809 | 0.831 | 0.815 | 0.738
GGATAG | 0.701 | 0.759 | 0.699 | 0.741 | 0.66 | 0.68 | 0.761
TCGTAA | 0.914 | 0.952 | 0.952 | 0.973 | 0.936 | 0.989 | 0.965
GACGCG | 0.629 | 0.67 | 0.604 | 0.607 | 0.639 | 0.745 | 0.669
AGTAAG | 0.79 | 0.778 | 0.757 | 0.736 | 0.747 | 0.787 | 0.776
CGTTGA | 0.903 | 0.782 | 0.786 | 0.782 | 0.867 | 0.779 | 0.806
CAAGCG | 0.917 | 0.998 | 0.949 | 0.891 | 0.884 | 0.796 | 0.914
GACATA | 0.868 | 0.832 | 0.836 | 0.918 | 0.884 | 0.902 | 0.867
GCACAG | 0.696 | 0.702 | 0.782 | 0.716 | 0.741 | 0.746 | 0.765
AGTGAT | 0.861 | 0.895 | 0.989 | 0.9 | 0.884 | 0.828 | 0.861
GGCGTG | 0.346 | 0.318 | 0.332 | 0.34 | 0.335 | 0.352 | 0.353
GATTGT | 0.885 | 0.718 | 0.88 | 0.837 | 0.859 | 0.844 | 0.893
ACCCAG | 0.699 | 0.709 | 0.733 | 0.735 | 0.743 | 0.772 | 0.719
TCGTGC | 0.838 | 0.721 | 0.818 | 0.72 | 0.783 | 0.824 | 0.74

Looked up one by one from the entries so far:
Sequence | binding signal [1] | binding signal [2] | binding signal [3] | binding signal [4] | binding signal [5] | binding signal [6] | binding signal [7]
GCACAG | 0.696 | 0.702 | 0.782 | 0.716 | 0.741 | 0.746 | 0.765
GCGCAG | 0.859 | 0.848 | 0.862 | 0.826 | 0.836 | 0.77 | 0.806

(continued)

Sequence | binding signal [1] | binding signal [2] | binding signal [3] | binding signal [4] | binding signal [5] | binding signal [6] | binding signal [7]
GGGGTG | 0.65 | 0.632 | 0.683 | 0.698 | 0.643 | 0.715 | 0.689
TGAGAC | 0.541 | 0.532 | 0.518 | 0.548 | 0.55 | 0.563 | 0.482
AGGTAC | 0.941 | 0.906 | 0.91 | 0.937 | 1.01 | 0.775 | 0.873
AAGCGT | 0.944 | 0.86 | 0.951 | 0.928 | 0.842 | 0.95 | 0.919
AGCGGT | 0.748 | 0.737 | 0.722 | 0.763 | 0.744 | 0.818 | 0.747
AGAGAG | 0.539 | 0.544 | 0.487 | 0.551 | 0.514 | 0.594 | 0.511
GGACGC | 0.398 | 0.406 | 0.4 | 0.401 | 0.389 | 0.339 | 0.398
AGTGGG | 0.533 | 0.638 | 0.592 | 0.608 | 0.552 | 0.6 | 0.604
ATGAGA | 0.82 | 0.897 | 0.815 | 0.868 | 0.875 | 0.894 | 0.86
CAACGT | 0.856 | 0.867 | 0.91 | 0.867 | 0.91 | 0.752 | 0.846
TCGGAG | 0.214 | 0.193 | 0.185 | 0.207 | 0.179 | 0.174 | 0.214
GACCAG | 0.614 | 0.683 | 0.701 | 0.617 | 0.663 | 0.597 | 0.705
GTGTCG | 0.61 | 0.671 | 0.589 | 0.626 | 0.605 | 0.517 | 0.641
TCGGTC | 0.544 | 0.627 | 0.632 | 0.541 | 0.582 | 0.569 | 0.59
CGCGGT | 0.829 | 0.927 | 0.966 | 0.868 | 0.94 | 0.888 | 0.956
AGGGAG | 0.366 | 0.341 | 0.342 | 0.396 | 0.362 | 0.36 | 0.357
GTTGAG | 0.715 | 0.621 | 0.636 | 0.652 | 0.7 | 0.732 | 0.669
CGTGTC | 0.752 | 0.813 | 0.793 | 0.826 | 0.752 | 0.751 | 0.771
ACGAGT | 0.721 | 0.728 | 0.708 | 0.728 | 0.764 | 0.779 | 0.722
